PubChem BioAssay AID504744, Drosophila RNAi Screening Center, 2011

Screen: 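Find genes whose loss alters insulin-driven dAkt phosphorylation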 (primary screen)
Cells: Drosophila Kc167 cells
Reagent: long dsRNA against Drosophila genes, 250 ng dsRNA per well of a 384-well plate
Timing: 3 days of knock-down, then overnight serum-free starvation before stimulation
Challenge: bovine insulin at 387 nM for 10 minutes after 12 h without serum
Measured: 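Per-well phospho-dAkt level from an in-cell fluorescent antibody stain, divided by a DNA-dye signal; log2 residuals turned into z-scores that take cell number into account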
Call rule: 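Under insulin, a gene counts as a hit if the average z-score of two replicates lies above 2.5 or below -2.5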
The deposit covers about 23,000 reagents; below is an unselected part of those with a known target gene and a result. Of all reagents, 98 (0.43%) are marked active. 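Only hit calls are given; the phospho-dAkt signals, z-scores and hit direction were not deposited.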 Names joined by + are all predicted targets of the reagent.

CG30496 (GeneID 246652) [DRSC06805] → call: inactive
CG10257 (GeneID 36671) [DRSC05985] → call: inactive
Mms19 (GeneID 40626) [DRSC12188] → call: inactive
CG13775 (GeneID 33975) [DRSC02279] → call: inactive
Mst36Fa (GeneID 318948) [DRSC21564] → call: inactive
CG15822 (GeneID 38273) [DRSC08482] → call: inactive
CG15822 (GeneID 38273) [DRSC08483] → call: inactive
CG17715 (GeneID 3355129) [DRSC11950] → call: inactive
Pop2 (GeneID 39366) [DRSC10537] → call: inactive
CG17658 (GeneID 37793) [DRSC04292] → call: inactive
O-fut2 (GeneID 31098) [DRSC18608] → call: inactive
CG15251 (retired record) (GeneID 31930) [DRSC17980] → call: inactive
srw (GeneID 38525) [DRSC08201] → call: inactive
mthl15 (GeneID 318914) [DRSC01120] → call: inactive
CR30374 (GeneID 10178922) [DRSC05080] → call: inactive
halo (GeneID 33334) [DRSC00705] → call: inactive
cold (GeneID 33237) [DRSC00538] → call: inactive
firl (GeneID 34627) [DRSC02428] → call: inactive
CG3408 (GeneID 39107) [DRSC10360] → call: inactive
CG7789 (GeneID 43516) [DRSC16312] → call: inactive
Kdm3 (GeneID 41143) [DRSC16393] → call: inactive
CG13796 + CG31904 [DRSC22161] → call: inactive
eys (GeneID 3771890) [DRSC00113] → call: inactive
eys (GeneID 3771890) [DRSC00402] → call: inactive
eys (GeneID 3771890) [DRSC00403] → call: inactive
eys (GeneID 3771890) [DRSC00695] → call: inactive
